{
  "source": "patent US20260146991A1",
  "about": "“COMPOSITION AND METHODS OF AGING-RELATED AGENT SCREENING AND TARGET ANALYSIS” (Centre for Translational Stem Cell Biology Limited, priority 2022, published 2026)",
  "key": {"[1]": {"test_system": "TSCs differentiating towards STBs", "experiment": "ELISA of secreted β-hCG during TSC-STB differentiation", "assay_type": "cell-based, human", "settings": "compared to the DMSO control group; FIG. 4F", "experimental": "To generate the hTSC cell lines, the single cell suspension of hEPSCs were plated on a 6-well plate (1-2×10^3/well) pre-coated with 10 mg/mL Geltrex™ LDEV-Free Reduced Growth Factor Basement Membrane Matrix or Matrigel and cultured in human trophoblast stem cell medium (hTSCM) for 7-10 days. Then single colonies of the differentiated cells on the 6-well plate were picked and expanded. The expanded cell lines were validated with trophoblast markers and RNA-Seq analysis. The established TSC cell lines were maintained in the hTSCM medium and passaged at ratio 1:4-1:5 every 3-5 days. The hTSCM was DMEM/F12 based medium supported with: 110 μM β-mercaptoethanol, 0.2% FBS, 0.5% Penicillin-Streptomycin-Glutamine, 0.3% BSA, 1×ITS-X supplement, 50.0 μg/mL Vc, 50.0 ng/ml EGF, 2.0 μM CHIR99021, 0.5 μM A83-01, 1.0 μM SB431542, 0.8 μM VPA, and 5.0 μM Y27632. Established TSC cells were seeded at 1.0×10^5-2×10^5 cells per well in a six-well plate pre-coated with 10 mg/mL Geltrex™ LDEV-Free Reduced Growth Factor Basement Membrane Matrix or Matrigel, and were induced to differentiate into STBs after culturing in syncytiotrophoblasts medium (STBM) for around 6 days. […]\nFirst, a known anti-aging drug Rapamycin was tested. […] On day 6, β-hCG was measured by ELISA as described in Example 1. Expression of aging-related marker genes (e.g., CGA and CGB3) was measured by RT-qPCR as described in Example 1."}, "[2]": {"test_system": "TSCs differentiating towards STBs", "experiment": "Cell morphology, viability and proliferation during TSC-STB differentiation", "assay_type": "cell-based, human", "settings": "treated cells during TSC-STB differentiation; FIG. 4E", "experimental": "To generate the hTSC cell lines, the single cell suspension of hEPSCs were plated on a 6-well plate (1-2×10^3/well) pre-coated with 10 mg/mL Geltrex™ LDEV-Free Reduced Growth Factor Basement Membrane Matrix or Matrigel and cultured in human trophoblast stem cell medium (hTSCM) for 7-10 days. Then single colonies of the differentiated cells on the 6-well plate were picked and expanded. The expanded cell lines were validated with trophoblast markers and RNA-Seq analysis. The established TSC cell lines were maintained in the hTSCM medium and passaged at ratio 1:4-1:5 every 3-5 days. […]\nSame number of TSCs in robust growing state were seeded in STBM with/without a candidate agent in a black Polystyrene TC-treated 96-well Microplate pre-coated with 10 mg/ml Geltrex™ LDEV-Free Reduced Growth Factor Basement Membrane Matrix or Matrigel (1.5×10^4-2×10^4 cells per well). […] Cell morphology was monitored daily under a microscope. The signal readouts of reporter molecules was assessed on day 2, day 4, and day 6. On day 6, cells in each well were fixed and stained with DAPI or Hoechst, and cell count and intensity (both reporter and nuclei) were assessed using high content microscopy to assess the agent's effects and cell viability. […]\nFirst, a known anti-aging drug Rapamycin was tested. […] On day 6, β-hCG was measured by ELISA as described in Example 1. […]"}},
  "note": "For at least one compound, name, drawing or mass did not settle the structure.",
  "data": [
    {"smiles": "CCC(CC)COC(=O)[C@H](C)N[P@](=O)(OC[C@H]1O[C@@](C#N)(c2ccc3c(N)ncnn23)[C@H](O)[C@@H]1O)Oc1ccccc1", "note": "[Remdesivir]", "values": [
      {"measurement": "secreted β-hCG level (ELISA)", "setting": "[1]", "value": "significantly lower"},
      {"measurement": "morphology: appearance of multinucleated STB cells", "setting": "[2]", "value": "delayed appearance of multinucleated STB cells"}
    ]}
  ]
}
